Drawing on patent US20180141989A1 (BOARD OF REGENTS OF THE UNIVERSITY OF OKLAHOMA, published 2018), this text covers binding for 29 molecules.

These are yes or no findings as the source states them, for the method shown. A result given as binding can be weak or reduced; the word gives no strength.

The target of one assay is MBP-RAMP1 ECD-(GS)5-CLR ECD-H6 fusion protein (human). Briefly: FP competition.
With DKDNVAPRWKISPWGY (C-terminal amide) [AM(37-52)NH2 [S45W, Q50W]], the binding entry was “binds”. On the same count and under the same terms, the result for FVPTDTGPWSF (C-terminal amide) [CGRP(27-37)NH2 [N31D, V32T, S34P, K35W, A36S]] reads “binds”.

For a further assay the target is unchanged. Briefly: AlphaLISA competition vs Biotin-CGRP probe.
As to DKDNVAPRSKISPWGY (C-terminal amide) [AM(37-52)NH2 [Q50W]], the binding result is listed as “binds”.

Consider DKDNVAPRWKISPWGY (C-terminal amide) [AM(37-52)NH2 [S45W, Q50W]], for which the binding result is “binds”.

Another assay has the same target. Briefly: FP (anisotropy) competition: displaces FITC-Ahx-AM(37-52)NH2[S45W,Q50W] probe (7 nM) from MBP-RAMP1 ECD-(GS)5-CLR ECD-H6 (15 nM) [A-C) panel B].
For the molecule FVPTDVGPWAF (C-terminal amide) [CGRP(27-37)NH2 [N31D, S34P, K35W]], the binding entry is reported as “binds”. As to DKDNVAPRSKISPWGY (C-terminal amide) [AM(37-52)NH2 [Q50W]], the binding entry is recorded as “binds”. On to DKDNVAPRWKISPWGY (C-terminal amide) [AM(37-52)NH2 [S45W, Q50W]], for which the binding entry was “binds”. Consider FVPTDVGPFSF (C-terminal amide) [CGRP(27-37)NH2 [N31D, S34P, K35F, A36S]], for which the binding entry is given as “binds”. The same measure, in the same setting: the same measure for DKDNVAPRSKISPFGY (C-terminal amide) [AM(37-52)NH2 [Q50F]]: “binds”.

Another assay has the same target. Briefly: FP (anisotropy) competition: displaces FITC-Ahx-AM(37-52)NH2[S45W,Q50W] probe (7 nM) from MBP-RAMP1 ECD-(GS)5-CLR ECD-H6 (15 nM) [A-C) panel C].
Consider DKDNVAPRSLISPWGF (C-terminal amide) [AM(37-52)NH2 [K46L, Q50W, Y52F]], for which the binding result is “binds”. On to DKKNVAPRSKISPQGY (C-terminal amide) [AM(37-52)NH2 [D39K]], for which the binding result is “binds”. Still for that read-out and setting: the result for DKDNVAPRSLISPWGY (C-terminal amide) [AM(37-52)NH2 [K46L, Q50W]] reads “binds”; that for FVPTDVGPWSY (C-terminal amide) [CGRP(27-37)NH2 [N31D, S34P, K35W, A36S, F37Y]], “binds”; that for FVPTDVGPWSF (C-terminal amide) [CGRP(27-37)NH2 [N31D, S34P, K35W, A36S]], “binds”.

The target is the same in another assay. Briefly: FP (anisotropy) competition: displaces FITC-Ahx-AM(37-52)NH2[S45W,Q50W] probe (7 nM) from MBP-RAMP1 ECD-(GS)5-CLR ECD-H6 (15 nM) [D-E) panel D].
With DKFNVAPRSLISPWGY (C-terminal amide) [AM(37-52)NH2 [D39F, K46L, Q50W]], the binding result is listed as “binds”.

FVPTDTGPWGF (C-terminal amide) [CGRP(27-37)NH2 [N31D, V32T, S34P, K35W, A36G]]: the binding entry is given as “binds”. Regarding DKDNVAPRWLISPWGF (C-terminal amide) [AM(37-52)NH2 [S45W, K46L, Q50W, Y52F]], the binding entry is “binds”. Still for that read-out and setting: the same measure for FVPTDTGPWGY (C-terminal amide) [CGRP(27-37)NH2 [N31D, V32T, S34P, K35W, A36G, F37Y]]: “binds”; for DKFNVAPRSLISPWGF (C-terminal amide) [AM(37-52)NH2 [D39F, K46L, Q50W, Y52F]]: “binds”.

A further assay shares this target. Kind of assay: FP (anisotropy) competition: displaces FITC-Ahx-AM(37-52)NH2[S45W,Q50W] probe (7 nM) from MBP-RAMP1 ECD-(GS)5-CLR ECD-H6 (15 nM) [D-E) panel E].
Take DKDNVAPRWWISPWGF (C-terminal amide) [AM(37-52)NH2 [S45W, K46W, Q50W, Y52F]]: the binding entry is given as “binds”.

Turning to FVPTDTGPWSF (C-terminal amide) [CGRP(27-37)NH2 [N31D, V32T, S34P, K35W, A36S]], the binding entry was “binds”. On the same count and under the same terms, the result for DKDNVAPRWMISPWGF (C-terminal amide) [AM(37-52)NH2 [S45W, K46M, Q50W, Y52F]] reads “binds”.

A further assay has the same target. Briefly: FP (anisotropy) competition: displaces FITC-Ahx-AM(37-52)NH2[S45W,Q50W] probe (7 nM) from MBP-RAMP1 ECD-(GS)5-CLR ECD-H6 (15 nM) [F-H) panel F].
In the case of DKDNVAPRTWISPWGY (C-terminal amide) [AM(37-52)NH2[S45T, K46W, Q50W]], the binding entry is on record as “binds”. The same measure, in the same setting: the same measure for DKDNVAPRWLIGPWGF (C-terminal amide) [AM(37-52)NH2 [S45W, K46L, S48G, Q50W, Y52F]]: “binds”; for DKDNVAPRTLISPWGY (C-terminal amide) [AM(37-52)NH2[S45T, K46L, Q50W]]: “binds”.

The target is the same in a further assay. Kind of assay: FP (anisotropy) competition: displaces FITC-Ahx-AM(37-52)NH2[S45W,Q50W] probe (7 nM) from MBP-RAMP1 ECD-(GS)5-CLR ECD-H6 (15 nM) [F-H) panel G].
For DKDNVAPRWLMSPWGF (C-terminal amide) [AM(37-52)NH2 [S45W, K46L, I47M, Q50W, Y52F]], the binding result was “binds”.

For another assay the target is unchanged. Briefly: FP (anisotropy) competition: displaces FITC-Ahx-AM(37-52)NH2[S45W,Q50W] probe (7 nM) from MBP-RAMP1 ECD-(GS)5-CLR ECD-H6 (15 nM) [F-H) panel H].
Regarding DKDNVAPRRLISPWGY (C-terminal amide) [AM(37-52) S45R/K46L/Q50W], the binding entry is on record as “binds”. Still for that read-out and setting: the same measure for DKDNVAPRRWISPWGY (C-terminal amide) [AM(37-52) S45R/K46W/Q50W]: “binds”.

The target is the same in a further assay. Kind of assay: FP (anisotropy) competition: displaces FITC-Ahx-AM(37-52)NH2[S45W,Q50W] probe (7 nM) from MBP-RAMP1 ECD-(GS)5-CLR ECD-H6 (15 nM) [I-J) lower graph].
As for DKWNVAPRSKISPWGY (C-terminal amide) [AM(37-52) D39W/Q50W], the binding entry is given as “binds”. On the same count and under the same terms, the result for VKDNVAPRWLISPWGF (C-terminal amide) [AM(37-52) D37V/S45W/K46L/Q50W/Y52F] reads “binds”.

A further assay shares this target. Briefly: FP (anisotropy) competition: displaces FITC-Ahx-AM(37-52)NH2[S45W,Q50W] probe (7 nM) from MBP-RAMP1 ECD-(GS)5-CLR ECD-H6 (15 nM) [I-J) upper graph].
In the case of DKDNVAPRRWLGPWGY (C-terminal amide) [AM(37-52) S45R/K46W/I47L/S48G/Q50W], the binding entry is recorded as “binds”. The same measure, in the same setting: the result for DKDNVAPRRWIGPWGY (C-terminal amide) [AM(37-52) S45R/K46W/S48G/Q50W] reads “binds”; that for DKDNVAPRRLIGPWGY (C-terminal amide) [AM(37-52) S45R/K46L/S48G/Q50W], “binds”.
